This note sets out measurements from the supplement of paper PMC12819154, “High-throughput peptide-centric local stability assay extends protein–ligand identification to membrane proteins, tissues and bacteria” (Nature Structural & Molecular Biology, 2025).

Amino acid sequences for entries named in this document (tags omitted). A change or cut given only in a name is not applied to a line headed by its entry.
UniProt O70451: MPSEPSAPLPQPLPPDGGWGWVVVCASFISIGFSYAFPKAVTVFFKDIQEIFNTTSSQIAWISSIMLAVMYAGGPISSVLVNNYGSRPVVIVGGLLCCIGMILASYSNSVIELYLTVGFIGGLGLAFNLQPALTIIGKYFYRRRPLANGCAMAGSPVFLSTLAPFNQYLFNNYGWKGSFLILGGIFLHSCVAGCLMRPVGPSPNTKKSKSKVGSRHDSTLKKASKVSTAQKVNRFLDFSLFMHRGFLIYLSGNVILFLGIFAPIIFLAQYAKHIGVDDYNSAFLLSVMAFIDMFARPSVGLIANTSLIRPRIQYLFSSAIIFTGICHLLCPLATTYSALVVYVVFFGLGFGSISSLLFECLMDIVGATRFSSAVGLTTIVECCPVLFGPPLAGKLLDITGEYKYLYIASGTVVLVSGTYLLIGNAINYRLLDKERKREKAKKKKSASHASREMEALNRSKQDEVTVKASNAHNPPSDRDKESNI
UniProt O55176: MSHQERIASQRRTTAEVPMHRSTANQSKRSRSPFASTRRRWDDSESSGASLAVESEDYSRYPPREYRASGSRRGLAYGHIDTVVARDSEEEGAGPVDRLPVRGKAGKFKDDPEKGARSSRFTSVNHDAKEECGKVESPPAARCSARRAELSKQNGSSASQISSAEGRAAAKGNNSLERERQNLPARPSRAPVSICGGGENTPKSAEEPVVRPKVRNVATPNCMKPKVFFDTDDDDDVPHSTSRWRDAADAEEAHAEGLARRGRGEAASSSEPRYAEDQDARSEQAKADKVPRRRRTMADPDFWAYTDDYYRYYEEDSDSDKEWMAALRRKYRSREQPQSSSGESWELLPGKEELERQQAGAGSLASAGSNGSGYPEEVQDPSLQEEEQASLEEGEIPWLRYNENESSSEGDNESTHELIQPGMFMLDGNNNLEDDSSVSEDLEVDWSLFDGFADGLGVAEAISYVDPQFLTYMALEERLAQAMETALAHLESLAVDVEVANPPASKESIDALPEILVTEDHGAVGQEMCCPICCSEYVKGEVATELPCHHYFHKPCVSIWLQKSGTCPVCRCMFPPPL
UniProt O55126: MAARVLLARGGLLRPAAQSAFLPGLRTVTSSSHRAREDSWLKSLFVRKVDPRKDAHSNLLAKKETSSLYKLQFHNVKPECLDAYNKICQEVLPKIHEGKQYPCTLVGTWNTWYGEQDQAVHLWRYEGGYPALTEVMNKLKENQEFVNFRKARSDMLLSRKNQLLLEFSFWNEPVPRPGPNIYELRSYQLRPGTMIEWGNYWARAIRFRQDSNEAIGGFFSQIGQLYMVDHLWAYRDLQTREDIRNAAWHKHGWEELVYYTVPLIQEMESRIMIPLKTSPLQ
UniProt O88572: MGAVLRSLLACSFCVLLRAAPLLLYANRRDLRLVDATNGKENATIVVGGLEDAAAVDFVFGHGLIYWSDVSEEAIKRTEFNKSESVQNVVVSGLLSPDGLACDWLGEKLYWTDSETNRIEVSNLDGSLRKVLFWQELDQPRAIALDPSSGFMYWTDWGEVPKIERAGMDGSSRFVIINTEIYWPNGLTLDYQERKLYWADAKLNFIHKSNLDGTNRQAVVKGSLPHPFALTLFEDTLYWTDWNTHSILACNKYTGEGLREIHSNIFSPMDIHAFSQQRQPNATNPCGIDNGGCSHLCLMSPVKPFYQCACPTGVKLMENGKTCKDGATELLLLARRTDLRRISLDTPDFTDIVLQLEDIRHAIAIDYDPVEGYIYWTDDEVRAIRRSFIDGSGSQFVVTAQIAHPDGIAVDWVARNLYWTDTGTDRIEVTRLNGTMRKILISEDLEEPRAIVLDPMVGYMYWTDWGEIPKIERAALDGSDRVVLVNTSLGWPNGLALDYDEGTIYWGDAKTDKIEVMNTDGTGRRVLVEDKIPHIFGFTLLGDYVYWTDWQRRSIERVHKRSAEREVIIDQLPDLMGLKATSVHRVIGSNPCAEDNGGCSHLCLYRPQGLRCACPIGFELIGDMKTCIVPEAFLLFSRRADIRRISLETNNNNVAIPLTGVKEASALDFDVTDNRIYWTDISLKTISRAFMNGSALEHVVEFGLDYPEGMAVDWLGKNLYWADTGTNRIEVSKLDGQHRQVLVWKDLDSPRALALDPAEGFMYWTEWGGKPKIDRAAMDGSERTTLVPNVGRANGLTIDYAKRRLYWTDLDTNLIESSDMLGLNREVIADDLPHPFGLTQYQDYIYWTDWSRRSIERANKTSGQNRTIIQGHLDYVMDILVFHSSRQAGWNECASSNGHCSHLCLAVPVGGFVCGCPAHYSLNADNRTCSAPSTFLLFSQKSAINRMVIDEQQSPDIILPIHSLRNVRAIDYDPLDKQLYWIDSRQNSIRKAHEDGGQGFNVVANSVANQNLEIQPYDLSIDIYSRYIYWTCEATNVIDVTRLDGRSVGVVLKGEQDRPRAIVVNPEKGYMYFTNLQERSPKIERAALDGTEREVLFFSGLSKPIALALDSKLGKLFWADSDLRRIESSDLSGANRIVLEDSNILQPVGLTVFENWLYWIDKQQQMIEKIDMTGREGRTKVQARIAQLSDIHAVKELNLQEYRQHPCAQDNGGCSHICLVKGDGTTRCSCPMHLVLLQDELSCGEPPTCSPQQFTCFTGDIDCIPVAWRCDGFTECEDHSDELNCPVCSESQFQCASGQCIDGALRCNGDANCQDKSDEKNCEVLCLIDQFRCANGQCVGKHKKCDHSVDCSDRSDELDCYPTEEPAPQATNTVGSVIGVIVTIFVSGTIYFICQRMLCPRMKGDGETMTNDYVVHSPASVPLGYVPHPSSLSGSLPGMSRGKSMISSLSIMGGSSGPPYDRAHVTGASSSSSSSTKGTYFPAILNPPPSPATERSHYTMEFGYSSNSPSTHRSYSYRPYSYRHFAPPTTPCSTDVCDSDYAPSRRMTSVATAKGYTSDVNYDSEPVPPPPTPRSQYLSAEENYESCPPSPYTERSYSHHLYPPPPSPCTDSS
UniProt O55234: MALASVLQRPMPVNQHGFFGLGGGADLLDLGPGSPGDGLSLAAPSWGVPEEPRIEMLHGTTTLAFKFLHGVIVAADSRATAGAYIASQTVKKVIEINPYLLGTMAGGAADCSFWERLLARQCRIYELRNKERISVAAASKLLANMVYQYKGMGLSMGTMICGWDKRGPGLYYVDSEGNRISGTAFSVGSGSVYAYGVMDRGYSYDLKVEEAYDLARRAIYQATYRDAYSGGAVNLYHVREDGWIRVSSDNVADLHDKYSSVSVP
UniProt O35732: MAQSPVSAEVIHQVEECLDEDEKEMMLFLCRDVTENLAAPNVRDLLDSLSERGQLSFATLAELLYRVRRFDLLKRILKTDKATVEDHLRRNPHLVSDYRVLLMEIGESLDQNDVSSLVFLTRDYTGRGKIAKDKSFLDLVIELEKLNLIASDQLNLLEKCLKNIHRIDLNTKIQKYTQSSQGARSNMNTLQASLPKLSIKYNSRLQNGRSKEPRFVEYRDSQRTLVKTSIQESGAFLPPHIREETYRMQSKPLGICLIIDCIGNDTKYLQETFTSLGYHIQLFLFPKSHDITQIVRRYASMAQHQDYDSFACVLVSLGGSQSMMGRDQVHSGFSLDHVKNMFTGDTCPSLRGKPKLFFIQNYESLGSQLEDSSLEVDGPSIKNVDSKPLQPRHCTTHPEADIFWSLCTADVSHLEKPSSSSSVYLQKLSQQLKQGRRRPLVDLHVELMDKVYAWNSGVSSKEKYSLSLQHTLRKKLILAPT
UniProt O70325, whole entry: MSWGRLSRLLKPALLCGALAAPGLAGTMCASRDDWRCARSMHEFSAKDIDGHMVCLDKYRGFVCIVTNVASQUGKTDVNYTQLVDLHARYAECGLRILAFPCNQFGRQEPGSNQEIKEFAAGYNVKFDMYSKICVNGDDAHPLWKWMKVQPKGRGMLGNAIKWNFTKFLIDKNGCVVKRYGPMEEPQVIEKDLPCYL
UniProt O54950: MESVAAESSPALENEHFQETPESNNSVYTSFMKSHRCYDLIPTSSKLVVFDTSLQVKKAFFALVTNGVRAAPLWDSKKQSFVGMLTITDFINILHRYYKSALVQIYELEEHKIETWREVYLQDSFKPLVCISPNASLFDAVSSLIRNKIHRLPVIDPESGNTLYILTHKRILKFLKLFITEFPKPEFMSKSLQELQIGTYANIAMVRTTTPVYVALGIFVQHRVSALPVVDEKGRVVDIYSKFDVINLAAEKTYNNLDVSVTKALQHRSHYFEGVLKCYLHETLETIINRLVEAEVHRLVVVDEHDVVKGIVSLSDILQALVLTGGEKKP
UniProt O88623: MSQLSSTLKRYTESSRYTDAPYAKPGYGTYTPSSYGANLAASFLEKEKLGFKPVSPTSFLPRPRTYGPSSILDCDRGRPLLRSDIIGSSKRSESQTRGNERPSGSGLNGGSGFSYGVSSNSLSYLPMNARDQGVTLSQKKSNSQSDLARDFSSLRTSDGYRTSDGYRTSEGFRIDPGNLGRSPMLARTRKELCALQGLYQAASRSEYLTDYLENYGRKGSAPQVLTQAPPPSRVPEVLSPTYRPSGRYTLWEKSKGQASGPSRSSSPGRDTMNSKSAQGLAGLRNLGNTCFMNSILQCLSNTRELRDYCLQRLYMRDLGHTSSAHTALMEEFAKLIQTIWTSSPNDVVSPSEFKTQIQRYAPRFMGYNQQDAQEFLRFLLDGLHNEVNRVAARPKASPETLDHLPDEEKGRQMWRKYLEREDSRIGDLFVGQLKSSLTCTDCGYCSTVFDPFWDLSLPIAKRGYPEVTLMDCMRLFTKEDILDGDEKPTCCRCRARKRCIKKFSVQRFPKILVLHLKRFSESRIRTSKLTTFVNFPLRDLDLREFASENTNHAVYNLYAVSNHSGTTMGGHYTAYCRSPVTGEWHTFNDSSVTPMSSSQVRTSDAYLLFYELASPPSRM
UniProt O88708: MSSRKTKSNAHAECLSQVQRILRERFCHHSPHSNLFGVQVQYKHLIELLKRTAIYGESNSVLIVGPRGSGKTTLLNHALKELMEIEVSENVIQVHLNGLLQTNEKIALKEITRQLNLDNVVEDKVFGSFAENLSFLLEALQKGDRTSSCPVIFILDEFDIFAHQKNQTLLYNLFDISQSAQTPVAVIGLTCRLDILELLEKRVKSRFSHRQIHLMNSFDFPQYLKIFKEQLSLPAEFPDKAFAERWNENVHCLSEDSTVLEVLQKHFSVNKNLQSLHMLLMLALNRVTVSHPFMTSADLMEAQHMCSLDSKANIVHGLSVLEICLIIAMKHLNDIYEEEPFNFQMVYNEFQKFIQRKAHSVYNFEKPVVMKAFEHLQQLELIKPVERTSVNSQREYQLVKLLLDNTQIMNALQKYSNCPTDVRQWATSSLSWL
UniProt O54784: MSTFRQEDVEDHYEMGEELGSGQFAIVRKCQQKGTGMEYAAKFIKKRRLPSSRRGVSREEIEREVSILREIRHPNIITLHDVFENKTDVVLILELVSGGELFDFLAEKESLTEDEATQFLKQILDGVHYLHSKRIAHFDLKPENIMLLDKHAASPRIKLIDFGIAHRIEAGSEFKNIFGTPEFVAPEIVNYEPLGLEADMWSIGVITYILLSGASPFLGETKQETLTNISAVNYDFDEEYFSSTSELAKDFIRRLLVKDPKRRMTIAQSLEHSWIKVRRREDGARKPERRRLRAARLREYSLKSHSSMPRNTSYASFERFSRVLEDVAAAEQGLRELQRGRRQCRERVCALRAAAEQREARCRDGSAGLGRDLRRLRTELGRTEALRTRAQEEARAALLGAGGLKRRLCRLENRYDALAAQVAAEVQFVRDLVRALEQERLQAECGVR
UniProt O54825: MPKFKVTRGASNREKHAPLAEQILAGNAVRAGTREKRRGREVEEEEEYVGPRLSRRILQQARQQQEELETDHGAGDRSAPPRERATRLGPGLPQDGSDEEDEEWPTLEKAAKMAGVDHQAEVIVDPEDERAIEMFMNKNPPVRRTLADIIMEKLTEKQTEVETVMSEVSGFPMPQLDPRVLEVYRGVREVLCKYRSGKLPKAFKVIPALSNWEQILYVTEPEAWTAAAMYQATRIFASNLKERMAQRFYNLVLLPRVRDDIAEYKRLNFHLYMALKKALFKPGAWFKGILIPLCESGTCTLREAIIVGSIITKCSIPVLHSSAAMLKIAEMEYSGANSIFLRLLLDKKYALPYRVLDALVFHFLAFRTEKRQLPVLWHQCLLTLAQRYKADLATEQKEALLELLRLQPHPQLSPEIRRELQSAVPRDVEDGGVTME
UniProt O70571, whole entry: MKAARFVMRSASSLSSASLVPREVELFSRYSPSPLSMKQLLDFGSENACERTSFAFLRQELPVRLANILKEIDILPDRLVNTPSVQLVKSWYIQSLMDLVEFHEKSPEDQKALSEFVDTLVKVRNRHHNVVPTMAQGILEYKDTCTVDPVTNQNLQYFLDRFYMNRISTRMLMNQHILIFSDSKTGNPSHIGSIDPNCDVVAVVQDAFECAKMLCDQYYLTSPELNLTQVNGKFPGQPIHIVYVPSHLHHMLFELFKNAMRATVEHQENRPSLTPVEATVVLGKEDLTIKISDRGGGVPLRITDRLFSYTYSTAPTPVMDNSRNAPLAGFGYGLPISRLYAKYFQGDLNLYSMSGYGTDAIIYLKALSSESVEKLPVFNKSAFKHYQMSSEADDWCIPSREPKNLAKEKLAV

Some of the results follow. Most entries show no effect beyond the scatter of the controls.

Compound in the experiment: CN[C@@H]1C[C@H]2O[C@@](C)([C@@H]1OC)n1c3ccccc3c3c4c(c5c6ccccc6n2c5c31)C(=O)NC4 [staurosporine]
The experiment can be described thus: log2 fold change of tryptic peptide abundance, ligand vs vehicle (limited proteolysis) (log2 ratio); higher = more trypsin-susceptible (destabilized). To be noted: ligand concentration: 20 uM; sample: mouse liver crude lysate; replicate design: treated separately.
As for “UniProt O70451 (peptide sequence: EMEALNR, peptide start residue: 452)”, the log2 fold change is -0.142.
Next, “UniProt O55176 (peptide sequence: TTAEVPMHR, peptide start residue: 13)”: 0.182.
Next, “UniProt O55126 (peptide sequence: IMIPLKTSPLQ, peptide start residue: 271)”: 0.256; “UniProt O88572 (peptide sequence: LYWADAK, peptide start residue: 4060)”: -0.179.
Next, “UniProt O70338 (peptide sequence: AEIHAACK, peptide start residue: 184)”: 0.247; “UniProt O88712 (peptide sequence: VQSVEQIR, peptide start residue: 156)”: 0.0631; “UniProt O35615 (peptide sequence: ASGPGEPGPQAPSR, peptide start residue: 481)”: 0.372.
“UniProt O55234 (peptide sequence: LLANMVYQYK, peptide start residue: 141)”: the log2 fold change turned out to be 0.295.
Next, “UniProt O35732 (peptide sequence: NPHLVSDYR, peptide start residue: 91)”: 0.35; “UniProt O88822 (peptide sequence: IGGSFKHPSSFEGK, peptide start residue: 250)”: 0.247.
Next, “UniProt O88665 (peptide sequence: RLANSQCEFER, peptide start residue: 332)”: 0.668; “UniProt O54951 (peptide sequence: RPGPHGPPTAALR, peptide start residue: 832)”: 0.181; “UniProt O35929 (peptide sequence: THQANHVPIILVGNK, peptide start residue: 181)”: 0.5.
Take “UniProt O88425 (peptide sequence: YIAPDSIR, peptide start residue: 109)”: the log2 fold change is -0.193.
In the case of “UniProt O70325 (peptide sequence: RYGPMEEPQVIEK, peptide start residue: 179)”, the log2 fold change is 0.372.
Next, “UniProt O54950 (peptide sequence: SHYFEGVLK, peptide start residue: 269)”: 0.266; “UniProt O35671 (peptide sequence: SVDSSLGGLSR, peptide start residue: 25)”: -0.38; “UniProt O88448 (peptide sequence: TLGKDHPAVAATLNNLAVLYGK, peptide start residue: 272)”: 0.252.
Regarding “UniProt O88892 (peptide sequence: DSEIMQQK, peptide start residue: 40)”, the log2 fold change is -0.0304.
Next, “UniProt O88623 (peptide sequence: ASPETLDHLPDEEKGR, peptide start residue: 396)”: 0.444; “UniProt O88587 (peptide sequence: YDVDTLDMVFLDHWK, peptide start residue: 173)”: 0.771.
Next, “UniProt O88708 (peptide sequence: AHSVYNFEKPVVMK, peptide start residue: 358)”: -0.249.
Next, “UniProt O54784 (peptide sequence: MTIAQSLEHSWIK, peptide start residue: 264)”: -0.769; “UniProt O54825 (peptide sequence: FYNLVLLPR, peptide start residue: 248)”: 0.358.
For “UniProt O70571 (peptide sequence: EVELFSR, peptide start residue: 23)”, the log2 fold change is -0.199.
“UniProt O88291 (peptide sequence: MAFTCSFCK, peptide start residue: 310)”: the log2 fold change was found to be 0.14.
Next, “UniProt O88622 (peptide sequence: LENVPQLNLDKSPTEK, peptide start residue: 124)”: -0.0976.
